Results are given in words; binding and its absence hold for the method and conditions named. For part of these data: Binding seen in cells or lysates may run through a third protein. Some binding calls cover weakened binding; strength is not graded here.
Key:
[1] = target: RNF2, endogenous (human (endogenous in HCC cells)) (UniProt Q99496); test: co-IP; HCC cell lysates in RIPA buffer with protease inhibitors, pre-cleared with protein-A/G sepharose; 2 ug anti-SIK1 or anti-RNF2 antibody with protein-G sepharose, 4 °C overnight; normal IgG as negative control; western blot
[2] = target: Salt-inducible kinase 1 (SIK1), endogenous (human (endogenous in HCC cells)) (UniProt P57059); test: as above
GST-RNF2 = GST-RNF2 (UniProt Q99496); test: pull-down; GST or GST-RNF2 coupled to GSH-Sepharose beads, incubated with purified His-SIK1; washed five times; SDS-PAGE and blot; both purified

Protein sequences, listed by entry. Tags and fused reporters are not part of them.
UniProt Q99496: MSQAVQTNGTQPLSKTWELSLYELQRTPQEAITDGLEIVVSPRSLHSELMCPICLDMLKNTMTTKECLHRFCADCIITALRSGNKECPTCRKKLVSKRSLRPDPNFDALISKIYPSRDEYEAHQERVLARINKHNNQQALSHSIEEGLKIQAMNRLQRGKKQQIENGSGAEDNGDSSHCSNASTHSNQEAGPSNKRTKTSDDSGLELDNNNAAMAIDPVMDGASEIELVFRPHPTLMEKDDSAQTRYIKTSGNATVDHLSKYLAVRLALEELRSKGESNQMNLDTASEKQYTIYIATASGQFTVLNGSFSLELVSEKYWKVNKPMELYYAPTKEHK
UniProt P57059: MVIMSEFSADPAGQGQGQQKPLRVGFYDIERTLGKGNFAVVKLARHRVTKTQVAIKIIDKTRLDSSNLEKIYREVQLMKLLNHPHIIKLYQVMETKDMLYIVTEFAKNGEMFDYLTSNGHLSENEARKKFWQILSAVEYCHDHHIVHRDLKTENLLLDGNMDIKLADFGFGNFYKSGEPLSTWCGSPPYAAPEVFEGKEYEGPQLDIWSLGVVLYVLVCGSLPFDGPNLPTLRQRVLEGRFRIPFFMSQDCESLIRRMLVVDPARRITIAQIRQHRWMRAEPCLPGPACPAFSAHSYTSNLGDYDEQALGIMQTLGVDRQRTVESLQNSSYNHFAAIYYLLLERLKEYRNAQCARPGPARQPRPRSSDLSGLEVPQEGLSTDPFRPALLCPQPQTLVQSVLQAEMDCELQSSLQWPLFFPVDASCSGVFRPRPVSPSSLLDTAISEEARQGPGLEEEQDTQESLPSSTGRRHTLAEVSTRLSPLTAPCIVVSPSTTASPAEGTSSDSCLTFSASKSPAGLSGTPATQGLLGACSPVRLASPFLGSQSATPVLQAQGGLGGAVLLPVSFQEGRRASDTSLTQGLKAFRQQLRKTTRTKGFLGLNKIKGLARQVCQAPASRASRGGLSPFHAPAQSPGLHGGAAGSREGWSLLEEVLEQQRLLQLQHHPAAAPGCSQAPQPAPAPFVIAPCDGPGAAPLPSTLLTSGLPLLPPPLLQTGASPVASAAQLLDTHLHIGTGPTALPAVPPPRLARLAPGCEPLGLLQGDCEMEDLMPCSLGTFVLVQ

Salt-inducible kinase 1 (SIK1), endogenous (from UniProt P57059 1-783)
binding [1]: binds

RNF2, endogenous (from UniProt Q99496 1-336)
binding [2]: binds

His-SIK1 (from UniProt P57059 1-783)
binding (GST-RNF2): binds

Source: publication PMC5356871
